Experimental data taken from patent publication US20240139222A1, “HUMAN MILK OLIGOSACCHARIDE COMPOSITIONS FOR USE WITH BACTERIOTHERAPIES” (PROLACTA BIOSCIENCE, INC., priority 2020, published 2024).
At least one structure is not confirmed: it was looked up by name or label, or the drawing left a doubt.

Test system: B. longum subsp. infantis within the gut microbiome
Assay: qPCR of B. longum subsp. infantis in stool samples, clinical study in healthy adult subjects
Assay type: in vivo, human
Conditions: Cohorts 5a and 5b (Omeprazole days 1-8) vs Cohort 6 (none); B. infantis and 18 g per day HMO

SMILES: COc1ccc2[nH]c([S+]([O-])Cc3ncc(C)c(OC)c3C)nc2c1 (stereo not shown) [Omeprazole]
- Effect of acid reducing drugs on B. longum subsp. infantis engraftment: no discernable effect
